Assay results from article doi:10.1101/2024.05.06.592854.
No constants are given. Whether binding was seen depends on the method and setting. Binding seen in cells or lysates may run through a third protein. Where a sequence is shown, tags or fusion partners need not be part of it.

Target: T1, 3xFLAG-NEK1 (NIMA-related kinase 1), expressed in human motor neurons (hsyn-3XFLAG-NEK1 lentivirus) (human) (UniProt Q96PY6)
T1 sequence: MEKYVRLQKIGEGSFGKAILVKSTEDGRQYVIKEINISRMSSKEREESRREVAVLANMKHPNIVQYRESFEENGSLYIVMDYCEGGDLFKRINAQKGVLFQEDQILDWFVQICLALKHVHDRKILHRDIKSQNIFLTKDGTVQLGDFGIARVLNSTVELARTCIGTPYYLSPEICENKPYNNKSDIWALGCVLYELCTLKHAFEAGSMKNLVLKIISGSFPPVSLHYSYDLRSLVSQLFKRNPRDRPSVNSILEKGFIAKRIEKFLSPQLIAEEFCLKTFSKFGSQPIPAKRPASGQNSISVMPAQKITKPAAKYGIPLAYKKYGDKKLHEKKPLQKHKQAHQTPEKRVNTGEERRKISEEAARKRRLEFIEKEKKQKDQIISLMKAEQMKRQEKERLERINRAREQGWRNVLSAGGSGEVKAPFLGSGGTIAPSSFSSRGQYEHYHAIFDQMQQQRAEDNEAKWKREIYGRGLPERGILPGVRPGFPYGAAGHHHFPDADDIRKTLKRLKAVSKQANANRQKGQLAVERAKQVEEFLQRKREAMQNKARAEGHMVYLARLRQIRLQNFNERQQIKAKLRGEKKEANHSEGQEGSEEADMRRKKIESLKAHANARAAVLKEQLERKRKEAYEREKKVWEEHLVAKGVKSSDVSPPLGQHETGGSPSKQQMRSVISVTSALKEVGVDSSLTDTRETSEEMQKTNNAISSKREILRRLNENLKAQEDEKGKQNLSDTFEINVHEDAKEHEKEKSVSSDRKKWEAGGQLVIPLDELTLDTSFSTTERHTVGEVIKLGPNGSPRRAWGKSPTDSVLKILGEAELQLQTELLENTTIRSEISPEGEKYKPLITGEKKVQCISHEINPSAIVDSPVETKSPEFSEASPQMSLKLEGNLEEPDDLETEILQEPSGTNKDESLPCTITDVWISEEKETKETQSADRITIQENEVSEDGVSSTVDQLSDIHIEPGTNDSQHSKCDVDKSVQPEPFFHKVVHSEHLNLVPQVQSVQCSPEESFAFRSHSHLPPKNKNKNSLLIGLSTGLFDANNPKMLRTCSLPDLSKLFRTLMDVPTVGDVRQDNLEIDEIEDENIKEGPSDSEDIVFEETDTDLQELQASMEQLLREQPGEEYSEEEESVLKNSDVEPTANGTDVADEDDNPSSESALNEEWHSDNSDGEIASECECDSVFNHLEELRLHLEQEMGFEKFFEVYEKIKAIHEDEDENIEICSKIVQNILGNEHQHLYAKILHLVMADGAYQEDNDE
Experiment: co-IP

γ-tubulin, motor neurons was tested, and the binding was “no binding”.
